Among the data in article PMC6098020 are binding values, retold here.

This experiment concerns the target GST-fused WT ∆19 ARL13B (human). The experiment in a line: pull-down; GST-fusion proteins immobilised on glutathione Sepharose, purified His-RAB11FIP5 in solution; 25 mM Tris-HCl pH 7.4, 150 mM NaCl, 1 mM EDTA, 10% glycerol, 0.5% Triton X-100; 4 °C, 4 h; western blot; both purified.

Results are given in words; binding and its absence hold for the method and conditions named. Binding can be weak; no strength is given. Where a sequence is shown, tags or fusion partners need not be part of it.

B1: 6× his-tagged RAB11FIP5 (protein, UniProt Q9BXF6 1-653)
chain: MALVRGAEPAAGPSRWLPTHVQVTVLRARGLRGKSSGAGSTSDAYTVIQVGREKYSTSVVEKTHGCPEWREECSFELPPGALDGLLRAQEADAGPAPWAASSAAACELVLTTMHRSLIGVDKFLGQATVALDEVFGAGRAQHTQWYKLHSKPGKKEKERGEIEVTIQFTRNNLSASMFDLSMKDKPRSPFSKIRDKMKGKKKYDLESASAILPSSAIEDPDLGSLGKMGKAKGFFLRNKLRKSSLTQSNTSLGSDSTLSSASGSLAYQGPGAELLTRSPSRSSWLSTEGGRDSAQSPKLFTHKRTYSDEANQMRVAPPRALLDLQGHLDAASRSSLCVNGSHIYNEEPQGPVRHRSSISGSLPSSGSLQAVSSRFSEEGPRSTDDTWPRGSRSNSSSEAVLGQEELSAQAKVLAPGASHPGEEEGARLPEGKPVQVATPIVASSEAVAEKEGARKEERKPRMGLFHHHHQGLSRSELGRRSSLGEKGGPILGASPHHSSSGEEKAKSSWFGLREAKDPTQKPSPHPVKPLSAAPVEGSPDRKQSRSSLSIALSSGLEKLKTVTSGSIQPVTQAPQAGQMVDTKRLKDSAVLDQSAKYYHLTHDELISLLLQRERELSQRDEHVQELESYIDRLLVRIMETSPTLLQIPPGPPK
As for B1, the binding entry is “binds”.
